In paper PMC10690054:
Results are given in words; binding and its absence hold for the method and conditions named. Binding seen in cells or lysates may run through a third protein. These calls come from enrichment with a bait or labelling near it, and not all partners need be listed. For some assays here: A no says only that the protein was not detected with the bait.

Chains of the proteins cited; added tags and fusions are not shown.
UniProt Q9WV86: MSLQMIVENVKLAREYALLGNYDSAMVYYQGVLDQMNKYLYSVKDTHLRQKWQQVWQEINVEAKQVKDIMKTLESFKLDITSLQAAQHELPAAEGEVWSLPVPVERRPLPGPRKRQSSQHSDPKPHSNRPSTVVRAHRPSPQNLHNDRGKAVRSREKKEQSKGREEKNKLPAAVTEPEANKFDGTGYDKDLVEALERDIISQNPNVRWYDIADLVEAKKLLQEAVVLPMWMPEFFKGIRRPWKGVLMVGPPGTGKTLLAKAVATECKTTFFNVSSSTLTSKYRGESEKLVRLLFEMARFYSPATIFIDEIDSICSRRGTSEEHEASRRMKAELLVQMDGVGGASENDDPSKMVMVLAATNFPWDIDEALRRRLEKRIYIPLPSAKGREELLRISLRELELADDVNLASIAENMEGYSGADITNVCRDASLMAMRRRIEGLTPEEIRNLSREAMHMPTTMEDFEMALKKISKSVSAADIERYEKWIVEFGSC
UniProt Q8BG40: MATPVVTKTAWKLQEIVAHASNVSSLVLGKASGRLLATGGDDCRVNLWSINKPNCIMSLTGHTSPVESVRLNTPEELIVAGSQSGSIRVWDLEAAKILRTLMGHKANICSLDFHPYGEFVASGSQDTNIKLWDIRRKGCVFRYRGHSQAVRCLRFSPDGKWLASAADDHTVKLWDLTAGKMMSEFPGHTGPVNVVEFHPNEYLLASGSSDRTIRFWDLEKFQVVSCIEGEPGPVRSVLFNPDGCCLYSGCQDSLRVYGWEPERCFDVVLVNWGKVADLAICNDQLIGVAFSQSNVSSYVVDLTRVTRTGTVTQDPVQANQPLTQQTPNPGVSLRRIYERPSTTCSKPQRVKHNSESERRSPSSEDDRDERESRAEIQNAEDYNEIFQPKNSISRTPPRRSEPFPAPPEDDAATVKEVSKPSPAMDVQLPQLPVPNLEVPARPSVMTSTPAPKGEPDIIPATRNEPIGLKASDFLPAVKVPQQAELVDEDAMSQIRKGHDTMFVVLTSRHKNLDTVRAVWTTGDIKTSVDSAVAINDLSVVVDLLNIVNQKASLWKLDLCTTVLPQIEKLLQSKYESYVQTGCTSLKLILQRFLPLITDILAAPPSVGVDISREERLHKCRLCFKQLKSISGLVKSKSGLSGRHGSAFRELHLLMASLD
UniProt Q8K0T4: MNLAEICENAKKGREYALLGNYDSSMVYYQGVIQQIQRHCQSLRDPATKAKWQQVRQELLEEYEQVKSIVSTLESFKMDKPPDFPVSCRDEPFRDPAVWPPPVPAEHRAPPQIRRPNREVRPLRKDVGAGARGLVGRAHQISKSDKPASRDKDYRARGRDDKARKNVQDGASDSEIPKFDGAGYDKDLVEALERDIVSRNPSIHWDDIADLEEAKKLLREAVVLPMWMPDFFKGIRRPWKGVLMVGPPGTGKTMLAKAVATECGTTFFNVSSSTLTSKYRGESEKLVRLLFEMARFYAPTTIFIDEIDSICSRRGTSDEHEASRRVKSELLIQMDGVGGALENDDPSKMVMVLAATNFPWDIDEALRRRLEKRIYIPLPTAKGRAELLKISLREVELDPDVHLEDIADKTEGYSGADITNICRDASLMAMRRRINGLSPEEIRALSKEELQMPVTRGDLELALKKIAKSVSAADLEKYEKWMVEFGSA

Legend:
Assay in all cases: affinity purification with mass spectrometry; in-house anti-KATNA1 (10 ug), anti-KATNAL1 (5 ug) or anti-KATNB1 (5 ug) antibody covalently coupled to AminoLink Plus resin (Pierce Co-IP kit); 5 mg pre-cleared WT mouse testis lysate (1% NP-40 in PBS, protease inhibitors), overnight at 4°C; negative control: antibody with non-amine-reactive control agarose resin; n=3 testes per IP; eluate digested with trypsin, LC-MS/MS, enrichment against control P<0.05
[1] = biological target: KATNA1 (mouse (endogenous in testis)) (UniProt Q9WV86)
[2] = biological target: KATNB1 (mouse (endogenous in testis)) (UniProt Q8BG40)
[3] = biological target: KATNAL1 (mouse (endogenous in testis)) (UniProt Q8K0T4)

Row | binding [1] | binding [2] | binding [3] | Molecule
1 | no binding | binds | – | KATNAL1 (from UniProt Q8K0T4 1-488)
2 | – | – | binds | KATNB1 (from UniProt Q8BG40 1-658)
3 | no binding | – | no binding | KATNAL2 (protein, UniProt Q9D3R6 1-539) MELSYQTLKLTHQAREAYEMRTEARRKNLLILILHYLTQEGYMDAAKALEEETKLGLRRFEVCDNVDLETILMEYESYYFVKFQKYPKVVKKAPDPVENNLPSRSGGKNKRLTNDSCQNLPKICHQKSRPKTSAVKTGDTKSVKEHLKQVKESVTDTQAESTDFGLNISKIHKDQPEEKAQPRRGQIIDFRGLLSDAIKGATSEFALNTFECNPDPSERLLKPLSAFIGMNSEMRELAAVVSRDIYLHNPNIKWNDIIGLDAAKQLVKEAVVYPIRYPQLFTGILSPWKGLLLYGPPGTGKTLLAKAVATECKTTFFNISASTIVSKWRGDSEKLVRVLFELARYHAPSTIFLDELESVMSQRGMVPGGEHEGSLRMKTELLVQMDGLARSEDLVFVLAASNLPWELDCAMLRRLEKRILVDLPSQEARQAMIYHWLPPVSKNHALELHTQLEYSVLSQETEGYSGSDIKLVCREAAMRPVRKIFSVLENNQSESNNLPGIQLDTVTTQDFLDVLAHTKPSAKNLTERYLAWQEKFESV
